# Laboratory results taken from US20020076760A1.
# Results are given in words; binding and its absence hold for the method and conditions named. Some binding calls cover weakened binding; strength is not graded here.
# T1: human G-Protein Coupled Receptor HNFDS78 (human) (UniProt O00421)
# T1 sequence: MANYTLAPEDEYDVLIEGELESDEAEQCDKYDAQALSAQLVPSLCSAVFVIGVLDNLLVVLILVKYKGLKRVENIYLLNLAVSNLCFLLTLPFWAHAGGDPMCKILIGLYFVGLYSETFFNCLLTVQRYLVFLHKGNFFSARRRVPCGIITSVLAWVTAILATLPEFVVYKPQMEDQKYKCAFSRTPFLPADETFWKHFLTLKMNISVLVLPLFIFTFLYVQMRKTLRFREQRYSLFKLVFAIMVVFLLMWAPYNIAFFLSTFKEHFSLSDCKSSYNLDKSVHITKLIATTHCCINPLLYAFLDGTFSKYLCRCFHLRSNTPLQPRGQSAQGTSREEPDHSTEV
# B1: human chemokine β-8 (ligand)
# chain: RVTKDAETEFMMSKLPLENPVLLDRFHATSADCCISYTPRSIPCSLLESYFETNSECSKPGVIFLTKKGRRFCANPSDKQVQVCMRMLKLDTRIKTRKN
# modifications: iodinated (radiolabel; residue not stated)
# Biological target: T1, human G-Protein Coupled Receptor HNFDS78 (human)
# Assay: binding of iodinated chemokine to membranes of COS cells transiently expressing the receptor
binder,measurement,value
B1,binding,binds
